Data taken from ChEMBL document CHEMBL3988442, “University of Dundee, Small-Polar-MMV Screening Library” (2021).

Chains of the proteins cited; added tags and fusions are not shown. Residues count along the entry.
UniProt A4I591, 1-473: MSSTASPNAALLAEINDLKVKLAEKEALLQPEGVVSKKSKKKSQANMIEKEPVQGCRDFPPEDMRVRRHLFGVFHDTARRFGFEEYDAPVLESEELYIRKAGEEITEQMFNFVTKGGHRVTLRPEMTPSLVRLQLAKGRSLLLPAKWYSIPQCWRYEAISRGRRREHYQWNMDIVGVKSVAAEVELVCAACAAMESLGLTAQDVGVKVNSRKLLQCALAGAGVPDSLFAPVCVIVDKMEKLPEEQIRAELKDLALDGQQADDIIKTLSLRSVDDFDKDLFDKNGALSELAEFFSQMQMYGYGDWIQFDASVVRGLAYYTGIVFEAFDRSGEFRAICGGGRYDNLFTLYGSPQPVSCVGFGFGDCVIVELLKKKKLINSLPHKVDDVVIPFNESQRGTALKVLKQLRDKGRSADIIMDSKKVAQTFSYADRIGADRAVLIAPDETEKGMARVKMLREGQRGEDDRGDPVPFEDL

Toxoplasma: 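Assay of Toxoplasma gondii numbers, read through their beta-galactosidase reporter with a colour substrate. Compounds at 10 µM. The record gives no direction; the compounds picked for IC50 retests had high values, so higher reads as fewer parasites. Size under these conditions: about 67,000 compounds, about 260 of them at 50% or above in at least one test.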
LiHisRS: 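Enzyme assay of histidyl-tRNA synthetase; the read-out is not stated. Target: Histidine-tRNA ligase, Leishmania infantum (UniProt A4I591). Concentration: 30 µM. Direction is inferred from retests: higher values go with stronger inhibition. The assay is labelled LdHisRS but filed under L. infantum. About 69,000 compounds were tested under these conditions; 0.6% (about 410) showed 50% or more at least once.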

Results are given as percent effect.
The controls that fix the scale are not given in the record; negative values are as filed.
Compounds were drawn at random from those tested, without regard to their results.
A dash means the value is not listed here; it may have been measured.

{"compound": "O=S1(=O)CCC(N(Cc2nc(-c3ccccn3)no2)Cc2cccs2)C1", "stereo": "configuration not stated", "Toxoplasma": -24.87, "LiHisRS": -0.8929}
{"compound": "O=C(O)C(F)(F)F.O=C(O)C(F)(F)F.O=C(O)C(F)(F)F.[H][C@]12COC[C@H](N3CCN(C)CC3)[C@@]1([H])CN(Cc1cc(C)cc(C)c1)C2", "Toxoplasma": 31.98}
{"compound": "CCCn1nc2c(cc1=O)CN(CCN1CCCC1=O)CC2", "Toxoplasma": 22, "LiHisRS": 23.68}
{"compound": "CS(=O)(=O)N1CCCCCC1C1CCN(c2ncccn2)CC1", "stereo": "configuration not stated", "Toxoplasma": -45.02, "LiHisRS": 12}
{"compound": "O=C(NCc1ccccc1Cn1ccnc1)N1CCSCC1", "Toxoplasma": 4.791, "LiHisRS": 12.9}
{"compound": "CC(C)OCCCNC(=O)NC(C)c1ccc(-n2cncn2)cc1", "stereo": "configuration not stated", "Toxoplasma": 0.863, "LiHisRS": 18.31}
{"compound": "Cc1cnc(N2CC[C@@H]3CN(CCC(C)C)S(=O)(=O)[C@@H]3CC2)nc1", "LiHisRS": 27.78}
{"compound": "Cc1ccc2c(c1)C1(CCNCC1)CN2C(=O)CN(C)C.O=C(O)C(F)(F)F.O=C(O)C(F)(F)F", "Toxoplasma": 3.389}
{"compound": "CCc1nn(C)c2[nH]nc(NC(=O)c3ccccc3COC)c12", "Toxoplasma": 5.83, "LiHisRS": 12.35}
{"compound": "COc1ccccc1NCC(=O)NCc1ccc(-c2ccn[nH]2)cc1", "Toxoplasma": 7.192, "LiHisRS": 14.17}
{"compound": "COCC(=O)NCCn1nc(-c2cc(C)oc2C)ccc1=O", "Toxoplasma": -2.971, "LiHisRS": 5.369}
{"compound": "Cc1nnc2n1CC(CNCc1nc(-c3ccsc3)no1)CC2", "stereo": "configuration not stated", "Toxoplasma": -4.532, "LiHisRS": 13.7}
{"compound": "COc1ccc(C)cc1CN1CCC(c2cc3ncccc3cn2)CC1", "LiHisRS": 60.56}
{"compound": "Cc1ncc(CNC(=O)N(C)Cc2ccc([S+](C)[O-])cc2)s1", "stereo": "configuration not stated", "Toxoplasma": -5.183, "LiHisRS": 20.55}
{"compound": "Cn1nnc2c1C(COCc1ccccn1)CN(C(=O)c1ccsc1)C2.O=C(O)C(F)(F)F", "stereo": "configuration not stated", "Toxoplasma": 15.49}
{"compound": "Cc1ccc(NC2CCN(C(=O)Cc3ccc(C#N)cc3)CC2)nn1", "Toxoplasma": -0.7467, "LiHisRS": 19.05}
{"compound": "Cc1ncc(C(=O)NCCNc2ncnc3sccc23)s1", "Toxoplasma": 3.759, "LiHisRS": 2.198}
{"compound": "Cc1nn(C)c(N2CCOCC2)c1CNC1CCN(C2CC2)CC1", "Toxoplasma": -26.32, "LiHisRS": 13.56}
{"compound": "CC1c2ncc(Cn3cccn3)n2CCN1Cc1ccc(F)cc1", "stereo": "configuration not stated", "LiHisRS": 27.72}
{"compound": "CCc1nn(-c2cc(Oc3cccc(C)c3)nc(C)n2)c(N)c1C#N", "Toxoplasma": 5.7, "LiHisRS": 12.64}
{"compound": "Cc1nc(C)n(C2CCCN(C(=O)c3ccc4c(c3)COC4)C2)n1", "stereo": "configuration not stated", "Toxoplasma": 5.493, "LiHisRS": 33.85}
{"compound": "Cn1cc(N2C(=O)CC[C@@H]3[C@H]2CCN3C(=O)c2cscn2)cn1", "LiHisRS": 11}
{"compound": "COCC(=O)N1CCn2c(Cn3cncn3)cnc2C1C", "stereo": "configuration not stated", "Toxoplasma": 6.431, "LiHisRS": 1.389}
{"compound": "O=C(O)C(F)(F)F.[H][C@@]12CCN(C3CCOCC3)C[C@]1([H])[C@H](C(=O)NC1CC1)CCO2", "Toxoplasma": 4.501}
{"compound": "COc1cc(C)c(NC(=O)CCn2cccc2)cc1OC", "Toxoplasma": 11.89, "LiHisRS": 12.68}
{"compound": "CN(Cc1cccnc1)[C@@H]1CN(Cc2cnn(C)c2)[C@@H]2CCCO[C@H]12", "LiHisRS": 5.556}
{"compound": "Fc1ccc(Nc2ccc(C3CCN(Cc4ncc[nH]4)CC3)nc2)nc1", "Toxoplasma": 5.447, "LiHisRS": -1.342}
{"compound": "Cc1noc([C@@H]2C[C@H](NC(=O)Nc3cccc(F)c3)CN2C)n1", "Toxoplasma": 1.883, "LiHisRS": 9.459}
{"compound": "COc1ccc(C2CCCN2c2ccnc(C)c2Cl)c(OC)c1", "stereo": "configuration not stated", "Toxoplasma": 50.91, "LiHisRS": 14.58}
{"compound": "Cc1cc(C(F)(F)F)c2c(C3CCCN(C(=O)C4CC4)C3)noc2n1", "stereo": "configuration not stated", "Toxoplasma": 2.821, "LiHisRS": 2}
{"compound": "[H][C@@]12CN(C(C)=O)C[C@]1([H])C(=O)N(CC1CC1)C2", "Toxoplasma": -19.58}
{"compound": "COc1ccc(C2Nc3cc(Cl)ccc3C3=NCCN32)cc1OC", "stereo": "configuration not stated", "Toxoplasma": -4.493, "LiHisRS": 12.41}
{"compound": "Cc1cc(-c2ccncc2)ccc1OCC(N)=O", "Toxoplasma": 1.441, "LiHisRS": 8.602}
{"compound": "CCn1nc(C)c2nnn(CC(=O)Nc3cccc(C)c3)c(=O)c21", "Toxoplasma": -0.7407, "LiHisRS": 15.52}

Some entries from above, unchanged:

| compound | Toxoplasma | LiHisRS |
|---|---|---|
| `COc1ccc(C2Nc3cc(Cl)ccc3C3=NCCN32)cc1OC` (configuration not stated) | -4.493% | 12.41% |
| `Cc1cnc(N2CC[C@@H]3CN(CCC(C)C)S(=O)(=O)[C@@H]3CC2)nc1` | - | 27.78% |